Assay results as given in patent US7226904B2, “Agents and methods for promoting bone growth” (priority 2000, dated 2007).
Part of at least one peptide drawing is inferred or uncertain, most often the ends. Ends that are not written are not given here. Peptide text beside a SMILES is read from it. * marks the point of attachment. αGalNAc = CC(=O)N[C@@H]1[C@@H](O)[C@@H](O)[C@@H](CO)O[C@@H]1*

Experiments:
[1] = test system: distal femur of young adult rats; assay: Local injection into the distal femur of young adult rats, radiologic and histologic analyses; assay type: in vivo, rat; settings: 1 μg injected into distal femur
[2] = test system: Deoxypyridinoline (Dpd) crosslinked products; assay: Pyrilinks-D assay of deoxypyridinoline (Dpd) in urine of treated rats (bone resorption); assay type: in vivo, rat
[3] = test system: Ovariectomized Sprague-Dawley rats; assay: High-dose administration to ovariectomized Sprague-Dawley rats; assay type: in vivo; settings: 100 ng/g to 30 μg/g body weight every day for 60 days, ovariectomized rats after 60 days bone loss
Experimental: Ovariectomized Sprague-Dawley rats were allowed to lose bone from 60 days. Thereafter, animals were injected with glycosylated fADBP or non-glycosylated fADBP, at concentrations ranging from 100 ng/g of body weight to 30 μg/g of body weight every day for 60 days.

Osteocalcin = Osteocalcin in treated rats (bone formation); assay type: in vivo, rat
normal adult rats = assay: Systemic (subcutaneous) administration to normal adult rats, pQCT bone densitometry of tibia; assay type: in vivo, rat; settings: vs saline
Experimental: After humane sacrifice, long bones were collected from rats subjected to agent treatment as described in Examples 1 and 2. The bones were evaluated using densitometry techniques with the Norland Medical Systems pQCT scanner. The densitometric parameters that were determined included: • 1. Total Content, which is the mineral content of the bone within a 1 mm slice. • 2. Total Density, which is the mean density of the total bone. • 3. Trabecular Content, which is the mineral content of the trabecular bone within a 1 mm slice. • 4. Trabecular Density, which is the mean density of the trabecular bone • 5. Cortical Content, which is the mineral content of the cortical bone within a 1 mm slice. • 6. Cortical Density, which is the mean density of the […]. • 7. Periosteal circumference in the “circular ring model” in mm. • 8. Endosteal circumference in the “circular ring model” in mm. • 9. Total area (mm^2), which is the cross sectional area of the bone after the soft tissue has been peeled off. • 10. […]
Non-glycosylated DBP peptides of different lengths, at a dosage of 0.4 ng/g of body weight, were administered by subcutaneous injection into normal adult rats every two days for two weeks. […] After humane sacrifice, the tibia was collected from control and DBP peptide treated rats and analyzed using densitometry techniques with the Norland Medical Systems pQCT scanner. […]

normal newborn rats = assay: Systemic administration to normal newborn rats, pQCT bone densitometry of long bones (tibia); assay type: in vivo, rat
[4] = 0.4 ng/g B.W. every 2 days (Adult)
[5] = 0.5 ng/g body weight every two days for two weeks, newborn rats, vs saline

TPTELAKLVNKRSE [Non-glycosylated fADBP]
appearance of the woven bone (histology) ([1]; one week (FIGS. 20 and 21)): histologically normal | new bone at the site of injection (histology, H&E and trichrome) ([1]; one week (FIGS. 20 and 21)): extensive woven bone | bone density at the site of injection (X-ray) ([1]; one week, vs saline (FIG. 19)): increase | density of trabecular bone in the distal metaphysis (X-ray) ([1]; one week, vs saline (FIG. 19)): increased | thickness of the cortical bone (X-ray) ([1]; one week, vs saline (FIG. 19)): appears to be increased | Deoxypyridinoline (DpD) Pyrilinks-D (bone resorption) [2, 4]: decrease | effect on bone formation [3]: no significant effect | Osteocalcin (bone formation) (Osteocalcin; [4]): no change | Total Bone Density (normal adult rats; 0.4 ng/g B.W. every 2 days for two weeks): increase

CC(=O)N[C@H]1[C@@H](O[C@H](C)[C@H](NC(=O)[C@@H]2CCCN2C(=O)[C@@H](N)[C@@H](C)O)C(=O)N[C@@H](CCC(=O)O)C(=O)N[C@@H](CC(C)C)C(=O)N[C@@H](C)C(=O)N[C@@H](CCCCN)C(=O)N[C@@H](CC(C)C)C(=O)N[C@H](C(=O)N[C@@H](CC(N)=O)C(=O)N[C@@H](CCCCN)C(=O)N[C@@H](CCCNC(=N)N)C(=O)N[C@@H](CO)C(=O)N[C@@H](CCC(=O)O)C(=O)O)C(C)C)O[C@H](CO)[C@H](O)[C@@H]1O [Glycosylated fADBP] (H-TPT(αGalNAc)ELAKLVNKRSE-OH)
Deoxypyridinoline (DpD) Pyrilinks-D (bone resorption) ([2]; 0.4 ng/g B.W. every 2 days, vs saline, listed as Peptide (fADBP)): decrease | Deoxypyridinoline (DpD) Pyrilinks-D (bone resorption) ([2]; 0.4 ng/g B.W. every 2 days, vs saline, listed as fADP): lower | Deoxypyridinoline (DpD) Pyrilinks-D (bone resorption) ([2]; 0.4 ng/g B.W. every 4 days): no change | Osteocalcin (bone formation) (Osteocalcin; 0.4 ng/g B.W. every 4 days): increase | Total Bone Density (normal newborn rats; 0.4 ng/g B.W. every 2 days for two weeks, intraperitoneal, newborn rats, vs saline): significantly greater | Total Bone Density (normal newborn rats; 0.4 ng/g B.W. every 2 days for two weeks, intraperitoneal, newborn rats, vs saline, listed as Peptide (fADBP)): increase | Total Bone Density (normal newborn rats; 0.4 ng/g B.W. every 4 days): decrease | total surface area of representative bone slices (normal newborn rats; 0.4 ng/g every two days for two weeks, newborn rats, proximal tibia, vs controls (FIG. 3)): significantly increased | effect on bone growth (cortical thickness, trabecular content, endosteal circumference, periosteal circumference) (normal newborn rats; 0.4 ng/g every two days for two weeks, newborn rats, tibial slice (FIGS. 4-7)): potent effect | cortical area of the tibia (normal newborn rats; [5]): increased | cortical bone density of the tibia (normal newborn rats; [5]): increased | cortical content of the tibia (normal newborn rats; [5]): increased | total area of the tibia (normal newborn rats; [5]): increased | total bone density of the tibia (normal newborn rats; [5]): increased | total content of the tibia (normal newborn rats; [5]): increased | trabecular area of the tibia (normal newborn rats; [5]): increased | trabecular bone density of the tibia (normal newborn rats; [5]): increased | trabecular content of the tibia (normal newborn rats; [5]): increased | Total Bone Density (normal adult rats; 5 ng/g B.W. every 2 days for two weeks): increase
